Results are given in words; binding and its absence hold for the method and conditions named. For part of these data: A result given as binding can be weak or reduced; the word gives no strength. For part of these data: In cells and extracts the contact can be indirect. Values belong to the molecule of their own block, whether it stands above or below them.
Columns and labels:
[1] = molecular target: GST-tagged FHA domain of MDC1 (UniProt Q14676); experiment: pull-down; GST pull-down in vitro; GST fusion protein on glutathione Sepharose, incubated 1 h at 4 °C, washed with NETN buffer
[2] = molecular target: FLAG-tagged ZNF506 ∆ZN (deletion of zinc-finger domains); experiment: co-IP; FLAG-tagged ZNF506 constructs expressed in HEK293 cells with endogenous ZNF506 knocked out by CRISPR; irradiated (10 Gy or indicated doses), lysates after an hour, immunoprecipitation with FLAG
[3] = molecular target: GST-tagged FHA domain of MDC1 (UniProt Q14676); experiment: pull-down; biotinylated ZNF506 peptides incubated with GST control or purified GST-tagged FHA domain of MDC1; blot; both purified

By UniProt entry, the sequences of proteins in these tests, tags left out. Where a name states a change or a piece, a line headed by the entry shows the natural chain unless it says otherwise.
UniProt Q14676: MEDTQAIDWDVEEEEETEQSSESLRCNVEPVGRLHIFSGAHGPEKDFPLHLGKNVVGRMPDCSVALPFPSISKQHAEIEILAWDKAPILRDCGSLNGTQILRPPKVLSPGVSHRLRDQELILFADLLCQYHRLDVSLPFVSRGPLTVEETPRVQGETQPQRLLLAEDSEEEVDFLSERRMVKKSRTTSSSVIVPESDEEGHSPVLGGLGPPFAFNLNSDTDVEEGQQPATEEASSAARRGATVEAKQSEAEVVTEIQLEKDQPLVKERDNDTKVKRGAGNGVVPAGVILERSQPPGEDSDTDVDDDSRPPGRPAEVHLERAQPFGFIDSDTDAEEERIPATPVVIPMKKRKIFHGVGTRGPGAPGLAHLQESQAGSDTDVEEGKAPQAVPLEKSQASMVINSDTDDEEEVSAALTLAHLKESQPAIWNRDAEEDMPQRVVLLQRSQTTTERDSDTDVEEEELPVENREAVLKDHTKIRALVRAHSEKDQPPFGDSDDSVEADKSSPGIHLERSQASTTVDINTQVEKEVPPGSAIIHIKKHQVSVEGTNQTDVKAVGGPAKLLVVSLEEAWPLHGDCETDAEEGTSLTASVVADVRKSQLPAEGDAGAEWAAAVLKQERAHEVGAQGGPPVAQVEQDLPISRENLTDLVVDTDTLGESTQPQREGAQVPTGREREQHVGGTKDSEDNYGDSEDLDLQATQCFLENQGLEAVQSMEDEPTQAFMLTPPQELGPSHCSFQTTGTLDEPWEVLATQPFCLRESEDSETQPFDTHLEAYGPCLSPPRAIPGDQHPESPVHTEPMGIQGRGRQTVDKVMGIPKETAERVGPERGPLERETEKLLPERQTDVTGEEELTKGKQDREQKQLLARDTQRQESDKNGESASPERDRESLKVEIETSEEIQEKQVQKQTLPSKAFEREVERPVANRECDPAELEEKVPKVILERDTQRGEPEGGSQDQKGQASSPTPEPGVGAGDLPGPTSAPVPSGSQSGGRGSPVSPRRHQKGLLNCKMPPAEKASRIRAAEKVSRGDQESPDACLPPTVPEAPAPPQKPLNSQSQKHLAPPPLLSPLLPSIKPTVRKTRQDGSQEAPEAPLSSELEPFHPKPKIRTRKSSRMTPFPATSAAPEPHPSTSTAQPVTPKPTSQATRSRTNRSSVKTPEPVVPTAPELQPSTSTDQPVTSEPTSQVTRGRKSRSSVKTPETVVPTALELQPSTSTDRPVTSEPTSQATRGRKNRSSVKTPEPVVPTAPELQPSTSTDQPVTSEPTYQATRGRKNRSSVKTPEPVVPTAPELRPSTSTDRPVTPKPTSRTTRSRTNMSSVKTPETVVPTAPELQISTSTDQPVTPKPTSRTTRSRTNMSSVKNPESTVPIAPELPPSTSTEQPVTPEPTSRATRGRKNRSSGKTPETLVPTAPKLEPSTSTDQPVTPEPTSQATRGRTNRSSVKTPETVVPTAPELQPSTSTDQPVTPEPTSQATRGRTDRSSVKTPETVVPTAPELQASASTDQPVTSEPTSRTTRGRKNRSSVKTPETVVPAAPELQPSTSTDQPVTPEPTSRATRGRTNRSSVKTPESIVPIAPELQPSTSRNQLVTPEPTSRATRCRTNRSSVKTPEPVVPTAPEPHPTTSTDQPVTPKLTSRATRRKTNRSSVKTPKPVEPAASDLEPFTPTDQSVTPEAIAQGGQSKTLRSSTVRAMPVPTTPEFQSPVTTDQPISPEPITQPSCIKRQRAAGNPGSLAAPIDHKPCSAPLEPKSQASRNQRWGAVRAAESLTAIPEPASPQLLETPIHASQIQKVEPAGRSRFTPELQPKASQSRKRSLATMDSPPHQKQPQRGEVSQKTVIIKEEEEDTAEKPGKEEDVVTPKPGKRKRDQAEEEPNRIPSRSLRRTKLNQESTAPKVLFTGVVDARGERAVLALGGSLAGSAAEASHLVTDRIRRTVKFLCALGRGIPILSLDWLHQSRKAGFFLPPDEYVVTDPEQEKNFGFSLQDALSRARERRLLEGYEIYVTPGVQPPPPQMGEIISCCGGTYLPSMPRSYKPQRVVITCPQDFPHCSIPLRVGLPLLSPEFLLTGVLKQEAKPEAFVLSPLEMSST
UniProt Q5JVG8: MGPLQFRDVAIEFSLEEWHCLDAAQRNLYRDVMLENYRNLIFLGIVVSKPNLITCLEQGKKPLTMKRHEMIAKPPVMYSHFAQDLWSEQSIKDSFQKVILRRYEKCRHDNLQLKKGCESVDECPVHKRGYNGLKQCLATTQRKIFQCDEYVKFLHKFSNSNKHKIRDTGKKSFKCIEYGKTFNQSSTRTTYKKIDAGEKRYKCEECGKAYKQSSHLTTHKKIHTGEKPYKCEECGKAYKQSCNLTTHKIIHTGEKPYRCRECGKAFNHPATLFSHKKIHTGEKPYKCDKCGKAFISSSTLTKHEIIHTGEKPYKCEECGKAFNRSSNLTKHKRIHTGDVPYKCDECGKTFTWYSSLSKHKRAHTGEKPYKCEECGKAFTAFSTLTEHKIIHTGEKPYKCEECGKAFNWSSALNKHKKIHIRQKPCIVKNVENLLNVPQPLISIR

binding [1]: binds
Molecule: ZNF506 (as used in the GST pull-down of Fig. 2b) (from UniProt Q5JVG8 1-444)

binding [2]: no binding
B1: EYA1 (enzyme, UniProt Q99502 1-592)
chain: MEMQDLTSPHSRLSGSSESPSGPKLGNSHINSNSMTPNGTEVKTEPMSSSETASTTADGSLNNFSGSAIGSSSFSPRPTHQFSPPQIYPSNRPYPHILPTPSSQTMAAYGQTQFTTGMQQATAYATYPQPGQPYGISSYGALWAGIKTEGGLSQSQSPGQTGFLSYGTSFSTPQPGQAPYSYQMQGSSFTTSSGIYTGNNSLTNSSGFNSSQQDYPSYPSFGQGQYAQYYNSSPYPAHYMTSSNTSPTTPSTNATYQLQEPPSGITSQAVTDPTAEYSTIHSPSTPIKDSDSDRLRRGSDGKSRGRGRRNNNPSPPPDSDLERVFIWDLDETIIVFHSLLTGSYANRYGRDPPTSVSLGLRMEEMIFNLADTHLFFNDLEECDQVHIDDVSSDDNGQDLSTYNFGTDGFPAAATSANLCLATGVRGGVDWMRKLAFRYRRVKEIYNTYKNNVGGLLGPAKREAWLQLRAEIEALTDSWLTLALKALSLIHSRTNCVNILVTTTQLIPALAKVLLYGLGIVFPIENIYSATKIGKESCFERIIQRFGRKVVYVVIGDGVEEEQGAKKHAMPFWRISSHSDLMALHHALELEYL

binding [3]: binds
Molecule: GLKQCLATTQRKIFQCDEYK (pThr at the ninth residue (T140 of ZNF506); C-terminal Lys(Biotin)) [ZNF506 pT140 peptide]
